Where “and” joins values, the source holds several entries; their conditions need not be identical. Equal values may be shown once. Entries after “also recorded” stand apart in the source; their conditions may differ. At least one peptide structure holds a part that was inferred or is arguable (an end, a ring closure or a residue).
How the values were obtained:
rhinitis = test: CNP / BNP dosage-finding study (nasal solution, subject of Case 10); format: in vivo, human
[1] = tested on: patients with rhinitis, allergic rhinitis in particular; test: Administration tests of CNP, BNP or ANP nasal solution preparations in rhinitis patients (case studies); format: in vivo, human; conditions: for Time until rhinorrhea was completely relieved on continued application: 100 μg/ml once a day in the morning, Case 3; for Time after nasal application until nasal occlusion was markedly improved: one spray in each nostril before bedtime, Case 6
Description: Diagnosis, evaluation of symptoms, and examination of the CNP nasal drop preparations, BNP nasal drop preparations and ANP nasal drop preparation were performed as follows. The subjects are patients in whom conventional external medicines such as steroids are not sufficiently effective, or patients in whom the use of steroids must be avoided due to local side effects such as nasal irritation and dryness. Diagnosis and treatment of these subjects were performed by the present applicant as a medical doctor. Severity evaluation of symptoms of allergic rhinitis was performed, in principle, in accordance with “Guidelines for medical care of nasal allergies, 2009 edition” (edited by the committee for creation of guidelines for medical care of nasal allergies), by classifying into 5 stages as shown below. Here, “mixed type” refers to the cases wherein both of the sneezing attack or rhinorrhea and the nasal occlusion were presented with the same severity. […] In the above table, evaluation scores for sneezing fit, rhinorrhea and nasal occlusion are as described in the table below. […] Administration tests of the nasal solution preparations of the present invention were performed by, in principle, spraying the CNP nasal solution, BNP nasal solution or ANP nasal solution used to fill a nasal spraying device twice a day at awakening time and before bedtime, with one spray in each nostril at each time. […] Prior to the application of CNP preparations, BNP preparations or ANP preparation, the subjects' history was obtained, scratch tests for allergens were performed and diagnosis was made.

[2] = 100 μg/ml, one spray in each nostril, each value one patient
[3] = 100 μg/ml, one spray in each nostril, each value one patient, listed as CNP nasal solution

Question: Which results are given for `CC[C@H](C)[C@@H]1NC(=O)[C@H](CCCNC(=N)N)NC(=O)[C@H](CC(=O)O)NC(=O)[C@H](CC(C)C)NC(=O)[C@H](CCCCN)NC(=O)[C@H](CC(C)C)NC(=O)CNC(=O)[C@H](Cc2ccccc2)NC(=O)[C@@H](NC(=O)CNC(=O)[C@H](CCCCN)NC(=O)[C@H](CO)NC(=O)[C@H](CC(C)C)NC(=O)CN)CSSC[C@@H](C(=O)O)NC(=O)CNC(=O)[C@H](CC(C)C)NC(=O)CNC(=O)[C@H](CO)NC(=O)[C@H](CCSC)NC(=O)[C@H](CO)NC(=O)CNC1=O` [CNP nasal solution preparation, human CNP-22]?
Answer: Degree of improvement of nasal occlusion compared to the 100 μg/ml nasal solution (rhinitis; 50 μg/ml, subject of Case 10): slightly lower; Time required for the manifestation of the drug efficacy compared to the 100 μg/ml nasal solution (rhinitis; 50 μg/ml, subject of Case 10): approximately twice as long; Time required for the manifestation of the effect (rhinitis; 50 μg/ml, subject of Case 10): approximately 20 min; Effects on rhinitis (in words) (rhinitis; 200 μg/ml, compared to 100 μg/ml): significant effects on rhinitis without irritation; also recorded: not doubled; Effect of aqueous solution preparation (in words) (rhinitis; concentration 20 μg/ml or less): insufficient; Effect of aqueous solution preparation (in words) (rhinitis; concentration 100 μg/ml): sufficient; Time the effects lasted after discontinuation of the application ([1]; 50 μg/ml, after 5-7 days of application, each value one patient): 3 to 4 days; Number of nose blows under application ([1]; 50 μg/ml, once or twice a day): 3 to 4 times a day; Time after nasal application until nasal occlusion was improved ([1]; 50 μg/ml, one spray in each nostril, each value one patient): 20 min; Time until rhinorrhea was completely relieved on continued application [1]: relieved 3 days; Time until rhinorrhea was completely relieved on continued application ([1]; listed as CNP nasal solution): 3 days; Time the effects lasted after discontinuation of the application ([1]; 100 μg/ml, after 1-5 days of application, each value one patient): 2-3 days, and and for 2-3 days after and ~3 days thereafter. and for 4-5 days.; Time the effects lasted after discontinuation of the application ([1]; 100 μg/ml, after 1-5 days of application, each value one patient, listed as CNP nasal solution): 2-3 days and about 3 days and 4-5 days and 3 days; Time the effects lasted after discontinuation of the application ([1]; 100 μg/ml, after 7 days of application once a day): approximately 1 week; Time after nasal application until nasal occlusion was markedly improved ([1]; 100 μg/ml): 1 hr later, nasal; Time after nasal application until nasal occlusion was markedly improved ([1]; 100 μg/ml, listed as CNP nasal solution): 1 h; Time after nasal application until nasal occlusion was improved or disappeared [1, 2]: 15 min later, and 5 min later, nasal and 5 to 10 min later, and 20 min later, nasal and 10 min later, nasal and 10 min later. and improved 25 min; Time after nasal application until rhinorrhea / nasal drip was relieved or stopped [1, 2]: 15 min later, and 5 min later, nasal and 20 min later, nasal and relieved 10 min and 10 min later, nasal and drip stopped 20 min and improved 25 min; Time after nasal application until nasal occlusion was improved or disappeared [1, 3]: 15 min and 5 min and 5 to 10 min and 20 min and 10 min and 25 min; Time after nasal application until rhinorrhea / nasal drip was relieved or stopped [1, 3]: 15 min and 10 min and 5 min and 20 min and 25 min
